The values that follow come from article PMC10163288.

The labels stand for the following.
B1: il2ra_site2_3nfp_sap_27_mot_HHH_b1_00497_000000019_0001_1_17_H_._HHH_b1_02145_af2_0001_0000500022_0000001_0_0001 (protein)
chain: SSSSDKFEEYVEAALLLARRAEEDGDPEAAERMLEIALAAAEDIGNEELFEEIERLLRELRSSSS
B2: il2ra_site2_3nfp_normal_mot_HHH_b2_05281_000000198_0001_39_56_H_._HHH_b1_07030_0001_0000100012_0000001_0 (protein)
chain: SSSSDEEEERIEELLREAKELLEEGNPEEAQRVLAEATHLIFKINNSRLFFELAELALEVHSSSS
B3: il2ra_site1_1z92_sap_8_mot_add8a691351788dd45ba4deda1838316_0001_1_000000225_0001_37_51_H_._a445c54e3280ddb545be3b99cff61ffd_0001_1_af2_0001_0000300042_0000001_ … (protein)
chain: SSSSTEDKREALELFQEANELIKEGNEEEAEELLERALRLAEEAGSRVVARSIEFALEDLESSSS
B4: il2ra_site2_3nfp_sap_21_mot_HHH_b1_06238_000000047_0001_1_16_H_._51496fa1c8d31d9133bff2649adae953_0001_0001_0000300019_0000001_0_0001_af2pred_0001_af2pred (protein)
chain: SSSSDREEEIVRRIVEELGLSEEVEKRLKRQAELALEAGFSEEEVEAALRAWALAWLEHLSSSSS
B5: il2ra_site2_2erj_normal_mot_HHH_b2_06912_000000039_0001_38_52_H_._HHH_b2_01292_0001_0000100004_0000001_0 (protein)
chain: SSSSSDKEESEKLAEEAHELILRNPERVEEIVEEFRRELEELNDPIAVRYLELVRRDVNSSSSSS
B6: il2ra_site1_2b5i_sap_9_mot_HHH_b1_06312_000000036_0001_42_56_H_._HHH_b2_08220_0001_0000100002_0000001_0_0001_af2pred_0001_af2pred (protein)
chain: SSSSDEQERINELFLEASRLALRGNPEEARELLEEALKLAEEAGDPRAREDVEKMLEALNSSSSS
B7: il2ra_site1_2b5i_sap_6_mot_HHH_b2_04910_000000118_0001_1_19_H_._HHH_b1_02251_0001_0000100002_0000001_0_0001_af2pred_dldesign_0_af2pred (protein)
chain: SSSSDPVAEIEKLLEQAKKEKDKKKVSKLLMKAYYLARKLNDPALIAKVKEVWDELEEELSSSSS
B8: il2ra_site2_2erj_normal_mot_HHH_b2_02500_af2_000000175_0001_19_35_H_._HHH_b1_03967_0001_0000300033_0000001_0 (protein)
chain: SSSSSDLLERAYELANILLHLVSRNDEERFEEISREFEEIVERLQSRSAKEVLELLEEELSSSSS
B9: il2ra_site1_1z92_sap_24_mot_HHH_b2_03833_af2_000000174_0001_41_53_H_._HHH_b1_04803_af2_0001_0000200019_0000001_1_0001_af2pred_0001_af2pred (protein)
chain: SEEEELEELLAEVAGVPPEAIERDLKRAEEHLGDPKKALRAVVQAVIALDPRFREELEELLEKVK
B10: il2ra_site1_1z92_normal_mot_HHH_b2_06572_000000077_0001_1_17_H_._HHH_b2_03912_0001_0000200056_0000001_0_af2pred_0001_af2pred (protein)
chain: SSSSEEEQEFALRVVIELAREFKLNAEDLKYLLEVALRLLEEGYSEEEIEEILHEEAEELSSSSS
B11: il2ra_site1_3nfp_sap_26_mot_HHH_b1_02637_af2_000000026_0001_1_18_H_._HHH_b1_02478_af2_0001_0000300029_0000001_0_0001 (protein)
chain: SSSSDEELQEANELAQEIMKATANGDEEEARELLRELEELAEELNTPLLRFLVEQLEENLNSSSS
B12: il2ra_site1_3nfp_sap_26_mot_HHH_b2_01680_af2_000000278_0001_1_15_H_._HHH_b1_00713_0001_0000300023_0000001_0_0001_af2pred_0001_af2pred_1 (protein)
chain: DEEEELRELVRKNPEARRLFAKLIFALAHGDEERLEKLEEEIQELIERTGDPALEAVLLLLELLR
B13: il2ra_site2_2erj_normal_mot_HHH_b1_02757_000000121_0001_41_57_H_._HHH_b2_03218_0001_0000300010_0000001_0_af2pred_0001_1_af2pred_swapped (protein)
chain: SSSSSSDAEEEVRELLEEAEKIEDIKEAMKVLQEASRIASEKDDPEAFKLVTEVFQRLSSSSSSS
B14: il2ra_site2_3nfp_normal_mot_HHH_b1_00015_000000185_0001_19_35_H_._ems_3hM_3301_0001_0000300017_0000001_0 (protein)
chain: SDKEEAHEILSRIALLAFEKNDQEAWLAVAELILLLARAEARNDEELVEEITELAKELLKEVESS
B15: il2ra_site2_2erj_sap_18_mot_HHH_b2_04662_000000013_0001_42_56_H_._HHH_b1_02138_0001_0000200008_0000001_0_0001_af2pred_0001_1_af2pred_swapped (protein)
chain: SSSSDEEELKELVERLAKELGASEEAKELAELSARNAAEAGASEEIIEAFLEALLRMAARRSSSS
B16: il2ra_site1_2b5i_sap_21_mot_HHH_b1_03854_af2_000000092_0001_42_55_H_._HHH_b1_03479_af2_0001_0000200015_0000001_0_0001_af2pred_dldesign_0_af2pred (protein)
chain: SSSSSSDAGEALRLFLEADRLWKAGKEEEAKKLLEEALKLAEKAKNRSLAKAIKYALETLSSSSS
B17: il2ra_site2_3nfp_sap_18_mot_HHH_b1_05437_000000005_0001_40_57_H_._240341e08b947b301b1390bbd516957c_0001_af2_0001_0000200005_0000001_1_0001_af2pred_0001_af2pred (protein)
chain: SSSSSSDDEELKEELEELEERGDEERLRKVVKEALQLAIELGDFQLFALALLARESLLSSSSSSS
B18: il2ra_site1_3nfp_sap_24_mot_HHH_b2_04252_000000281_0001_1_19_H_._HHH_b1_04735_af2_0001_0000200008_0000001_0_0001 (protein)
chain: SSSDHEEISEILWKALRLAWNGNFEEAQKVLEEARELAEERNDERLERRIRYDLRALERFRSSSS
B19: il2ra_site2_3nfp_sap_12_mot_HHH_b2_05540_000000122_0001_22_38_H_._4a0b58da0a66d934d1bcaa80596e03bc_0001_1_af2_0001_0000500020_0000001_0_0001 (protein)
chain: SSSSDVEELLEEIEELIKKGNLEEAEKVLREVAQVAAELGDEEAFARIADLMYELIKLEDSSSSS

The other results are listed elsewhere or left out.

The target of this experiment is il2ra, P01589. Description: yeast display titration.
In the case of B1, the “apparent Kd” value is “inactive: no binding seen”. Consider B2, for which the “apparent Kd” value is “inactive: no binding seen”.

As for B3, the “apparent Kd” value was “inactive: no binding seen”. Turning to B4, the “apparent Kd” value was “inactive: no binding seen”. Take B5: the “apparent Kd” value is “inactive: no binding seen”. For B6 the value was “inactive: no binding seen”. Take B7: the “apparent Kd” value was “inactive: no binding seen”. With B8, the “apparent Kd” value is “inactive: no binding seen”. For B9 the value was “inactive: no binding seen”; for B10, “inactive: no binding seen”. Under B11 stands “inactive: no binding seen”; under B12, “inactive: no binding seen”.

As to B13, the “apparent Kd” value is “inactive: no binding seen”. As to B14, the “apparent Kd” value is “inactive: no binding seen”. Take B15: the “apparent Kd” value was “inactive: no binding seen”. Regarding B16, the “apparent Kd” value was “inactive: no binding seen”. As for B17, the “apparent Kd” value is “inactive: no binding seen”.

For B18, the “apparent Kd” value is “inactive: no binding seen”. For B19 the value was “inactive: no binding seen”.
